Laboratory results taken from paper doi:10.1101/596171.
No constants are given. Whether binding was seen depends on the method and setting. Binding seen in cells or lysates may run through a third protein. These calls come from enrichment with a bait or labelling near it, and not all partners need be listed. No binding means not detected with the bait.

Sequences of proteins named here, by UniProt entry; tags and fusion partners are left off. A change or cut given only in a name is not applied to a line headed by its entry.
UniProt A1Z7N6: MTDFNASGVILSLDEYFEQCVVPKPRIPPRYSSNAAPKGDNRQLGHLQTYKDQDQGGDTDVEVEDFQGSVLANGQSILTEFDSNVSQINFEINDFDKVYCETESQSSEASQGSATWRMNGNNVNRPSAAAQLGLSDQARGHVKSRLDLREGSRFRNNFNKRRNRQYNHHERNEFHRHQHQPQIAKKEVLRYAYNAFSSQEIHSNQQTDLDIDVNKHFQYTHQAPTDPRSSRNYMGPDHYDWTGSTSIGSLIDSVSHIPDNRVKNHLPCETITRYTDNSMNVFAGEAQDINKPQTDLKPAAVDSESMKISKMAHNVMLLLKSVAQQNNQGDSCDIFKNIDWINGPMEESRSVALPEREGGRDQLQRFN
UniProt Q27268: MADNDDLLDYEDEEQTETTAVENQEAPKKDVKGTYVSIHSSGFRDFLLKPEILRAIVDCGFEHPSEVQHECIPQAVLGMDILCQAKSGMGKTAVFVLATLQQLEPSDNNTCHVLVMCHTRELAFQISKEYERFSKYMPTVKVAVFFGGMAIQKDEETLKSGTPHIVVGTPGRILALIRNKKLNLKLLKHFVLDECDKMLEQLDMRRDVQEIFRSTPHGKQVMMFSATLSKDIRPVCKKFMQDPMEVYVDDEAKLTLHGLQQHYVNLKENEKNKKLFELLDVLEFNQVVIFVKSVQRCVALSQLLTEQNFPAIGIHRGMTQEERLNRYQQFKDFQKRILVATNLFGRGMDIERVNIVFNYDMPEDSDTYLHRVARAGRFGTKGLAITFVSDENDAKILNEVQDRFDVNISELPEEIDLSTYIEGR

B1: Rhino, Q7JXA8 1-418 (protein)
chain: MSRNHQRPNLGLVDAPPNDHVEEYVVEKILGKRFVNGRPQVLVKWSGFPNENNTWEPLENVGNCMKLVSDFESEVFRLHRKAAAKSVGKSKSSPSSSGPLITENGPSSSKKTQQHSKSVQAKNTAGMSKMNQKKGKNIKKTAGKIKDIENYPKTQMPSTSQVSTDSTEVFDGNPSATTTNMIKSPRIQSLFSDLNLIEPTKDKDVGDTSLKTPPKSRRLIEFPQREDAPLSSKHVSPMLIRKESQPLQSSCTDDSDLGESSSSMSLPTVSSTSSEKSIKVTKSEPKTLGQIKFSSRSSDGGHAASSLGAPKEGDIGLDLSGSDSMDSEVESMRRCPRRKRKKTYPDWKFPEMTKPFGVNRGLDLDKILHCYQMNDDLFMFVTWKGCSSIDAVHINDIKEAYPLQIIKYFESLRIIVPK
B2: Deadlock, Q9VIF5 1-981 (protein)
chain: MEKLDKIRMSQKLSCWQHILTTLGTSSKTEQEWNTFFKGFLESWRKPYCIQTSCDPSIPLRKELLVRPRKALQENPHGPGSTLPESPVFLEPINSTAPREHPSPSKSHSTGSTGCDPGNGERSPSVSNKNSKYKNPGNSKYAKIWKRSNNHTTSIFSKAQISKRRDKLSSTKKRPDTCAPTDDSRKNREPRACAPNKNIFKTRETNAPNLTKNSCALPNVLILSPNSASKITQRGHSVGQTQDYKASPGKIIKRVPRYSLQCLKKKTEKVHNKIMDKPKNKQQPQTPPPFLLNNEYTESSDDSDDQLPLSELSQKMKSNKLNTLFLSRNEDCSPAPEKVKLKGERPAQNKKEQLTWEPSILTNLTDLGKQVAEPLRKSVKKSAKQQKPRVRAPPQGKKTLPQLQTGLKTQDKQSTHEMISEQAKTISEASGQQTSQVQSSLSPNNIRNNSVKLISAKTLMPAQRSQDYSPNKMQVGQPLGFAIELPSPVDGKEASVEIDTQLVHTSKFLENMTRPSTVEVHKFDLMDIFMGENEKLDYEYDDDDVLSVAASWNGLDDENVPEDEPRKEAKTAEQLPKPEPSTETLKPIEKENAQKMQSIKSFQIPKLNAKNLKTQPSVMRSIYENEELEKNKVLAKPAPPSLVHQPLAESNRNQRDEATAARRAKETFPVFAPLYRVAPESAATLVSANSQQVIPQVYFSTSNQDGVNWIKDVFGIRCMQSVDNKCISINCDHTMNSLGEVQKRLMRMDEDTLLSLYRQTIRSFFLFQTYYTSFVDIFKFRNLWQYLLIMLVDCRLYKSISAPLLAHVYEALSKCGMQKEAVKRIMEHVWLPCKAHKYRDLMLTTLNILSNANWEDYCDKLTQLDKDYNFEIPHKNLITILKSSVDCSDKFANALKLITLHPNSIRTNETIMSILSNASKSYSYMHNESASASQGPPGAASFLAPPAAIQPPHTTVPNFGYLPNPSFHYSNEYAINIHNFD
B3: Cutoff (protein, UniProt Q9V629 1-384)
chain: MNSNYTILNIRAHSWAEKDNLVFPTITKPVSNGWFAWSPIGQFEPNSQKVPYVVVPPSIKFPISLRYKDSPPKLEKKPNIFLDNMLQYIESSSYMYVMVRNNQQAQLNANIVCTSEVLELMMCAPYEKKTGWSLGVTRYRNTMYICRIDVEQPDPIDQDNLKRAMQEFWLRNLRTHCVFENGIKMHQHNQSSEEHLRFHGVFSFDLNGNRVLFDSPVLAEMPSTTLNGSALSWVDLQIRPMFMSRLDWPEHNRTEALKWWVKCFLLGIESLYIARRDENAHVHNIEKTLVRDLWKSCEKDWSPTVCANFMIYLLNCISQVMAPIDCPSTVYLFQFDASQGTVSYKGLRGRNQYTFVSDWFRMMLDDHTNDMCKTPNLQTMSSIV

How the values were obtained:
[1] = target: CG13741-LAP (Drosophila melanogaster) (UniProt A1Z7N6); experiment: affinity purification with mass spectrometry
[2] = target: CG13741-LAP (Drosophila melanogaster), A1Z7N6; experiment: affinity purification with mass spectrometry; conditions: remark: other sources report otherwise

Row | Molecule | binding [1] | binding [2]
1 | UAP56 (from UniProt Q27268 1-424) | binds | 
2 | B1 |  | no binding
3 | B2 |  | no binding
4 | B3 | no binding | 
